Data source: PubChem BioAssay AID1508597 (Cure First, 2020)

- Purpose: 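Genes whose silencing sensitises or protects ovarian cancer cells against rucaparib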 (primary screen)
- Cells: human ovarian carcinoma lines grown from tumours: OCI-P5x (papillary serous) and OCI-C5x (clear cell)
- Knock-down reagent: siRNA pool against human genes, 1.25 pmol siRNA per well
- Timing: 72 h or 96 h, depending on the cell culture
- Treatment: rucaparib 20 µM (about IC30) or vehicle, present until read-out
- Rucaparib or vehicle: Rucaparib
- Cell line: OCI-C5x (clear cell)
- Measured: 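Luminescent ATP-based viability assay read 72 or 96 h after transfection, depending on culture, given as normalised percent viability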
- Direction: viability, normalised: higher = more viable cells remaining
- Hit rule: 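a well counts as a hit if its normalised viability is under 80 percent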
- Meaning of the calls: active = viability under 80%; inactive = viability 80% or more
This is an unselected part of the about 2,100 reagents, in one setting of the screen. 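Calls flag viability under 80% in either arm, not effects specific to rucaparib; the reference for percent is not stated.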 Some reagents were tested in more than one well and are listed for each. The record does not give: the 100% reference.

ADK (adenosine kinase), technical replicate 1 | viability, normalised (%): 92.1; call: inactive
ADK (adenosine kinase), technical replicate 2 | viability, normalised (%): 97.5; call: inactive
ADK (adenosine kinase), technical replicate 3 | viability, normalised (%): 68.7; call: active
P2RY2 (purinergic receptor P2Y2), technical replicate 1 | viability, normalised (%): 30.5; call: active
P2RY2 (purinergic receptor P2Y2), technical replicate 2 | viability, normalised (%): 34.4; call: active
P2RY2 (purinergic receptor P2Y2), technical replicate 3 | viability, normalised (%): 46.2; call: active
BPTF (bromodomain PHD finger transcription factor), technical replicate 1 | viability, normalised (%): 30.2; call: active
BPTF (bromodomain PHD finger transcription factor), technical replicate 2 | viability, normalised (%): 16.6; call: active
BPTF (bromodomain PHD finger transcription factor), technical replicate 3 | viability, normalised (%): 23.7; call: active
SS18L1 (SS18L1 subunit of BAF chromatin remodeling complex), technical replicate 1 | viability, normalised (%): 63.3; call: active
SS18L1 (SS18L1 subunit of BAF chromatin remodeling complex), technical replicate 2 | viability, normalised (%): 67.3; call: active
SS18L1 (SS18L1 subunit of BAF chromatin remodeling complex), technical replicate 3 | viability, normalised (%): 61.3; call: active
MAP2K7 (mitogen-activated protein kinase kinase 7), technical replicate 1 | viability, normalised (%): 52.5; call: active
MAP2K7 (mitogen-activated protein kinase kinase 7), technical replicate 1 | viability, normalised (%): 43.6; call: active
MAP2K7 (mitogen-activated protein kinase kinase 7), technical replicate 2 | viability, normalised (%): 57.7; call: active
MAP2K7 (mitogen-activated protein kinase kinase 7), technical replicate 2 | viability, normalised (%): 53.5; call: active
MAP2K7 (mitogen-activated protein kinase kinase 7), technical replicate 3 | viability, normalised (%): 48.1; call: active
MAP2K7 (mitogen-activated protein kinase kinase 7), technical replicate 3 | viability, normalised (%): 58.3; call: active
HK2 (hexokinase 2), technical replicate 1 | viability, normalised (%): 50.8; call: active
HK2 (hexokinase 2), technical replicate 2 | viability, normalised (%): 49.6; call: active
HK2 (hexokinase 2), technical replicate 3 | viability, normalised (%): 50.1; call: active
PMAIP1 (phorbol-12-myristate-13-acetate-induced protein 1), technical replicate 1 | viability, normalised (%): 34.8; call: active
PMAIP1 (phorbol-12-myristate-13-acetate-induced protein 1), technical replicate 2 | viability, normalised (%): 67.6; call: active
PMAIP1 (phorbol-12-myristate-13-acetate-induced protein 1), technical replicate 3 | viability, normalised (%): 30; call: active
MAPK10 (mitogen-activated protein kinase 10), technical replicate 1 | viability, normalised (%): 47.1; call: active
MAPK10 (mitogen-activated protein kinase 10), technical replicate 2 | viability, normalised (%): 65.1; call: active
MAPK10 (mitogen-activated protein kinase 10), technical replicate 3 | viability, normalised (%): 60; call: active
MNAT1 (MNAT1 component of CDK activating kinase), technical replicate 1 | viability, normalised (%): 36.8; call: active
MNAT1 (MNAT1 component of CDK activating kinase), technical replicate 2 | viability, normalised (%): 51.2; call: active
MNAT1 (MNAT1 component of CDK activating kinase), technical replicate 3 | viability, normalised (%): 40.8; call: active
FGFR4 (fibroblast growth factor receptor 4), technical replicate 1 | viability, normalised (%): 51.6; call: active
FGFR4 (fibroblast growth factor receptor 4), technical replicate 2 | viability, normalised (%): 62.2; call: active
FGFR4 (fibroblast growth factor receptor 4), technical replicate 3 | viability, normalised (%): 57.9; call: active

A portion of the results above, for reference:
HK2 (hexokinase 2), technical replicate 3 | viability, normalised (%): 50.1; call: active
PMAIP1 (phorbol-12-myristate-13-acetate-induced protein 1), technical replicate 1 | viability, normalised (%): 34.8; call: active
PMAIP1 (phorbol-12-myristate-13-acetate-induced protein 1), technical replicate 2 | viability, normalised (%): 67.6; call: active
PMAIP1 (phorbol-12-myristate-13-acetate-induced protein 1), technical replicate 3 | viability, normalised (%): 30; call: active
MAPK10 (mitogen-activated protein kinase 10), technical replicate 1 | viability, normalised (%): 47.1; call: active
